Test results reported in patent publication US8246758B2, “Neutral or alkaline medium chain peroxycarboxylic acid compositions and methods employing them” (Ecolab USA Inc., priority 2004, dated 2012).
Where “and” joins values, the source holds several entries; their conditions need not be identical. Equal values may be shown once.

Assay: Corrosion test, brass
Conditions: Peroxyacetic Acid, pH 6.5

## CC(=O)OO [Peroxyacetic Acid]
4.5 wt-%
  Milli-inches per year (mpy) of corrosion, brass: 9.798 mpy and 9.136 mpy
6.8 wt-%
  Milli-inches per year (mpy) of corrosion, brass: 12.16 mpy and 11.59 mpy
